PubChem BioAssay AID1224828 – NIAID, 2016

Assay: 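Regulators linking TLR4 signalling to p65 nuclear translocation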 (primary screen)
System: mouse RAW264.7 G9 macrophage reporter cells (GFP-p65, Tnf promoter-mCherry)
Reagent: siRNA pool against mouse genes, 100 nM
Timing: 2 days siRNA transfection, then 40 min LPS before fixation
Treatment: LPS (Salmonella minnesota R595) at 10 ng/ml
Detection: 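Imaged p65 nuclear translocation ratio, normalised to the plate median, converted to robust z-scores and averaged across two replicates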
Reading the numbers: p65 translocation robust z-score: higher = more nuclear NF-kappaB p65 after LPS than the plate median; nuclear/cytoplasmic p65 ratio: higher = more nuclear NF-kappaB p65
Call rule: 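Called active when z exceeds 3.3 or falls under -1.56 (median of Tlr4 controls), giving activity score of at least 50; no calls for control wells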
Calls: active = hit (p65 shift raised or lowered); inactive = no clear change
The whole screen tested about 17,000 reagents; shown is a random part of them. 762 of them (4.5%) count as active. 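Active calls include both raised and lowered p65 entry, mostly lowered; wells with fewer than 50 cells lack a z-score.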 The raw values are shown without normalisation. Reagents against one gene are numbered here.

For Cst3, what does the deposit list?
p65 translocation robust z-score: -0.69; nuclear/cytoplasmic p65 ratio, rep 1: 1.36; nuclear/cytoplasmic p65 ratio, rep 2: 1.31; low cell count flag: enough cells to score; outcome: inactive

How did the screen score Klk1b8?
p65 translocation robust z-score: -1.94; nuclear/cytoplasmic p65 ratio, rep 1: 1.22; nuclear/cytoplasmic p65 ratio, rep 2: 1.22; low cell count flag: enough cells to score; outcome: active

With Ndufs1, how do the results read?
p65 translocation robust z-score: 1.75; nuclear/cytoplasmic p65 ratio, rep 1: 1.45; nuclear/cytoplasmic p65 ratio, rep 2: 1.56; low cell count flag: enough cells to score; outcome: inactive

How did the screen score Btg1?
p65 translocation robust z-score: -0.14; nuclear/cytoplasmic p65 ratio, rep 1: 1.61; nuclear/cytoplasmic p65 ratio, rep 2: 1.58; low cell count flag: enough cells to score; outcome: inactive

With Ifi47, what was measured?
p65 translocation robust z-score: -0.56; nuclear/cytoplasmic p65 ratio, rep 1: 1.52; nuclear/cytoplasmic p65 ratio, rep 2: 1.31; low cell count flag: enough cells to score; outcome: inactive

For Ropn1l, what does the deposit list?
p65 translocation robust z-score: -0.85; nuclear/cytoplasmic p65 ratio, rep 1: 1.48; nuclear/cytoplasmic p65 ratio, rep 2: 1.33; low cell count flag: enough cells to score; outcome: inactive

How did the screen score Pkd1l2?
p65 translocation robust z-score: 0.42; nuclear/cytoplasmic p65 ratio, rep 1: 1.49; nuclear/cytoplasmic p65 ratio, rep 2: 1.22; low cell count flag: enough cells to score; outcome: inactive

For 5330431K02Rik, what was measured?
nuclear/cytoplasmic p65 ratio, rep 1: 1.32; nuclear/cytoplasmic p65 ratio, rep 2: 1.36; low cell count flag: fewer than 50 cells per well; well left out of scoring; outcome: inactive

For Tgm4, what was measured?
nuclear/cytoplasmic p65 ratio, rep 1: 1.31; nuclear/cytoplasmic p65 ratio, rep 2: 1.48; low cell count flag: fewer than 50 cells per well; well left out of scoring; outcome: inactive

Which result is listed for Cxcl9?
p65 translocation robust z-score: -0.27; nuclear/cytoplasmic p65 ratio, rep 1: 1.46; nuclear/cytoplasmic p65 ratio, rep 2: 1.55; low cell count flag: enough cells to score; outcome: inactive

How did the screen score Lrrc40?
p65 translocation robust z-score: 0.61; nuclear/cytoplasmic p65 ratio, rep 1: 1.79; nuclear/cytoplasmic p65 ratio, rep 2: 1.62; low cell count flag: enough cells to score; outcome: inactive

For H2-T22 #1, what was measured?
p65 translocation robust z-score: 1.55; nuclear/cytoplasmic p65 ratio, rep 1: 1.96; nuclear/cytoplasmic p65 ratio, rep 2: 1.69; low cell count flag: enough cells to score; outcome: inactive

For H2-T22 #2, what was measured?
p65 translocation robust z-score: -2.2; nuclear/cytoplasmic p65 ratio, rep 1: 1.55; nuclear/cytoplasmic p65 ratio, rep 2: 1.24; low cell count flag: enough cells to score; outcome: active

Which result is listed for H2-T22 #3?
p65 translocation robust z-score: 1; nuclear/cytoplasmic p65 ratio, rep 1: 1.91; nuclear/cytoplasmic p65 ratio, rep 2: 1.58; low cell count flag: enough cells to score; outcome: inactive

Reformatted: entries from further up
Ropn1l
- p65 translocation robust z-score: -0.85
- nuclear/cytoplasmic p65 ratio, rep 1: 1.48
- nuclear/cytoplasmic p65 ratio, rep 2: 1.33
- low cell count flag: enough cells to score
- outcome: inactive

Pkd1l2
- p65 translocation robust z-score: 0.42
- nuclear/cytoplasmic p65 ratio, rep 1: 1.49
- nuclear/cytoplasmic p65 ratio, rep 2: 1.22
- low cell count flag: enough cells to score
- outcome: inactive
